From doi:10.1101/2021.05.07.442906
Like-named read-outs stand apart in the source and are kept apart here. No constants are given. Whether binding was seen depends on the method and setting. In cells and extracts the contact can be indirect. Some results given as binding are weak or reduced against the parent protein; the word gives no strength. For some assays here: Sequences can lack the tags named with a protein.

Amino acid sequences for entries named in this document (tags omitted).
UniProt Q5VSL9: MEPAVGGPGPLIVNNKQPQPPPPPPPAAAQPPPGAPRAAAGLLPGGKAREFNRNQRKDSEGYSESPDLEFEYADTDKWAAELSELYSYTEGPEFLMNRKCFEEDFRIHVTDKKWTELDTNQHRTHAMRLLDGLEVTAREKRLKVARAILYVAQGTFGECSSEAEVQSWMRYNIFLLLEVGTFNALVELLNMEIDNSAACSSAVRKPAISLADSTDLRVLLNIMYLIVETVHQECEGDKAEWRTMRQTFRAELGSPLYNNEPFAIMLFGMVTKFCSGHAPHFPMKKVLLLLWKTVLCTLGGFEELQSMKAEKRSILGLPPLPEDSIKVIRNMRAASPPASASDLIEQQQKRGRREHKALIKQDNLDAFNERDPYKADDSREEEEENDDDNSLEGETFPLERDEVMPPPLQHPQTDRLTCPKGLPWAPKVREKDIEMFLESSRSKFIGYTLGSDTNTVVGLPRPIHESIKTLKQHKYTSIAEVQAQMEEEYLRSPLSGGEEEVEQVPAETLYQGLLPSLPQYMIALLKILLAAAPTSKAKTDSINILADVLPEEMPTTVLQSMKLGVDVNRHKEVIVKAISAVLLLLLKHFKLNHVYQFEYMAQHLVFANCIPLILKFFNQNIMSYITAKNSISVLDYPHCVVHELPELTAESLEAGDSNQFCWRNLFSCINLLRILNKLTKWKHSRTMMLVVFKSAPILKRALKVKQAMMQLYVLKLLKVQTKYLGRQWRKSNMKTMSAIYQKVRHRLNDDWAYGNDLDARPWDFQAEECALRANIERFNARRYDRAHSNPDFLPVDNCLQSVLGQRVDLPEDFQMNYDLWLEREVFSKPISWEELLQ

B1: STRN4 (protein, UniProt Q9NRL3 1-753)
chain: MMEERAAAAVAAAASSCRPLGSGAGPGPTGAAPVSAPAPGPGPAGKGGGGGGSPGPTAGPEPLSLPGILHFIQHEWARFEAEKARWEAERAELQAQVAFLQGERKGQENLKTDLVRRIKMLEYALKQERAKYHKLKFGTDLNQGEKKADVSEQVSNGPVESVTLENSPLVWKEGRQLLRQYLEEVGYTDTILDMRSKRVRSLLGRSLELNGAVEPSEGAPRAPPGPAGLSGGESLLVKQIEEQIKRNAAGKDGKERLGGSVLGQIPFLQNCEDEDSDEDDELDSVQHKKQRVKLPSKALVPEMEDEDEEDDSEDAINEFDFLGSGEDGEGAPDPRRCTVDGSPHELESRRVKLQGILADLRDVDGLPPKVTGPPPGTPQPRPHEDVFIMDTIGGGEVSLGDLADLTVTNDNDLSCDLSDSKDAFKKTWNPKFTLRSHYDGIRSLAFHHSQSALLTASEDGTLKLWNLQKAVTAKKNAALDVEPIHAFRAHRGPVLAVAMGSNSEYCYSGGADACIHSWKIPDLSMDPYDGYDPSVLSHVLEGHGDAVWGLAFSPTSQRLASCSADGTVRIWDPSSSSPACLCTFPTASEHGVPTSVAFTSTEPAHIVASFRSGDTVLYDMEVGSALLTLESRGSSGPTQINQVVSHPNQPLTITAHDDRGIRFLDNRTGKPVHSMVAHLDAVTCLAVDPNGAFLMSGSHDCSLRLWSLDNKTCVQEITAHRKKHEEAIHAVACHPSKALIASAGADALAKVFV
B2: STRN3 (protein, UniProt Q13033 1-797)
chain: MDELAGGGGGGPGMAAPPRQQQGPGGNLGLSPGGNGAAGGGGPPASEGAGPAAGPELSRPQQYTIPGILHYIQHEWARFEMERAHWEVERAELQARIAFLQGERKGQENLKKDLVRRIKMLEYALKQERAKYHKLKYGTELNQGDLKMPTFESEETKDTEAPTAPQNSQLTWKQGRQLLRQYLQEVGYTDTILDVRSQRVRSLLGLSNSEPNGSVETKNLEQILNGGESPKQKGQEIKRSSGDVLETFNFLENADDSDEDEENDMIEGIPEGKDKHRMNKHKIGNEGLAADLTDDPDTEEALKEFDFLVTAEDGEGAGEARSSGDGTEWDKDDLSPTAEVWDVDQGLISKLKEQYKKERKGKKGVKRANRTKLYDMIADLGDDELPHIPSGIINQSRSASTRMTDHEGARAEEAEPITFPSGGGKSFIMGSDDVLLSVLGLGDLADLTVTNDADYSYDLPANKDAFRKTWNPKYTLRSHFDGVRALAFHPVEPVLVTASEDHTLKLWNLQKTVPAKKSASLDVEPIYTFRAHIGPVLSLAISSNGEQCFSGGIDATIQWWNMPSPSVDPYDTYEPNVLAGTLVGHTDAVWGLAYSGIKNQLLSCSADGTVRLWNPQEKLPCICTYNGDKKHGIPTSVDFIGCDPAHMVTSFNTGSAVIYDLETSQSLVILSSQVDSGLQSNNHINRVVSHPTLPVTITAHEDRHIKFFDNKTGKMIHSMVAHLDAVTSLAVDPNGIYLMSGSHDCSIRLWNLDSKTCVQEITAHRKKLDESIYDVAFHSSKAYIASAGADALAKVFV

How the values were obtained:
Experiment in all cases: co-IP
[1] = molecular target: T1, MAP4K4 intermediate domain 1 (ID1, 290-634), 3xFLAG-tagged (human) (UniProt O95819)
T1 sequence: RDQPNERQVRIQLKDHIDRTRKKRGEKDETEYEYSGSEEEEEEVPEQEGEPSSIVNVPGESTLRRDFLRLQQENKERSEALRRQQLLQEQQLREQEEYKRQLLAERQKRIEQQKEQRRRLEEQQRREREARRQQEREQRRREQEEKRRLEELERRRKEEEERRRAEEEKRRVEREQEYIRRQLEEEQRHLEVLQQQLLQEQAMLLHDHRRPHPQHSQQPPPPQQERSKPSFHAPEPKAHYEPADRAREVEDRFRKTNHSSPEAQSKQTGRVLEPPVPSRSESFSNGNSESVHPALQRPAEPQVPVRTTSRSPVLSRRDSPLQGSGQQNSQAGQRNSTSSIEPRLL

[2] = molecular target: T2, MAP4K4 intermediate domain 2 (ID2, 635-954), 3xFLAG-tagged (human) (UniProt O95819)
T2 sequence: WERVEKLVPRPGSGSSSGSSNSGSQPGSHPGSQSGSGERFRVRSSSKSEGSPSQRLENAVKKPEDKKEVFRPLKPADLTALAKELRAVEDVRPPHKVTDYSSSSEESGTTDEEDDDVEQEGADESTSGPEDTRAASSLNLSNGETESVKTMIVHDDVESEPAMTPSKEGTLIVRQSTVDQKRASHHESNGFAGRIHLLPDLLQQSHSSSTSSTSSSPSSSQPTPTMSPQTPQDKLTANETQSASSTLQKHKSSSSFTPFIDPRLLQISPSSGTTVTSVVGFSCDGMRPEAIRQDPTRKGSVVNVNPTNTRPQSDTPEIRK

[3] = molecular target: T3, MAP4K4 kinase domain (KD, 1-289), 3xFLAG-tagged (human) (UniProt O95819)
T3 sequence: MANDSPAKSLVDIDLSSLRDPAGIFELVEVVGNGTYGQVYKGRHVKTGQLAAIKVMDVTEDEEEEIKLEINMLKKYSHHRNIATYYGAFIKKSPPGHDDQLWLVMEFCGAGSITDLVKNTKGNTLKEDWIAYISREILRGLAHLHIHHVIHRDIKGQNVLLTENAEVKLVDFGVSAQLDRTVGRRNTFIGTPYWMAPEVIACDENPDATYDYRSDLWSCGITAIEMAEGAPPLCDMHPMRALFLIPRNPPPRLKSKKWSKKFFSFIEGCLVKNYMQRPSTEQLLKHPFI

[4] = molecular target: T1, MAP4K4 intermediate domain 1 (ID1, 290-634), 3xFLAG-tagged (human); remark: listed apart in the source
[5] = molecular target: T2, MAP4K4 intermediate domain 2 (ID2, 635-954), 3xFLAG-tagged (human); remark: listed apart in the source
[6] = molecular target: T3, MAP4K4 kinase domain (KD, 1-289), 3xFLAG-tagged (human); remark: listed apart in the source
[7] = molecular target: STRIP1 (human (endogenous in HEK-293T and DAOY)) (UniProt Q5VSL9)
[8] = molecular target: 3xFLAG-BioID2-MAP4K4 (human) (UniProt O95819)
[9] = molecular target: MAP4K4 (experiment of Figure S1G, with or without GNE-495) (human) (UniProt O95819)
[10] = molecular target: full-length MAP4K4-FLAG (3xFLAG-tagged) (human) (UniProt O95819)

| Molecule | binding [1] | binding [2] | binding [3] | binding [4] | binding [5] | binding [6] | binding [7] | binding [8] | binding [9] | binding [10] |
| --- | --- | --- | --- | --- | --- | --- | --- | --- | --- | --- |
| STRIP1 (from UniProt Q5VSL9 1-837) | no binding | no binding | no binding |  |  |  |  |  |  |  |
| B1 |  |  |  | no binding | no binding | no binding | binds |  |  |  |
| B2 |  |  |  |  |  |  | binds | binds | binds | binds |
